Results published in US20210261642A1, “SOLUBILITY OF GLP-1 PEPTIDE” (Novo Nordisk A/S, priority 2017, published 2021).
This continues a long series; more values of the same kind are listed elsewhere.

Assay: Assay (I): Determination of Solubility (96-well plate, pH 3.0-11.0, organic solvent 0-70% w/w, UV absorption at 280 nm)
Type: physicochemical
Description: Assay (I): Determination of Solubility
96-Well Plate Preparation
96-well plates containing target peptide in a solid form were prepared in one of two ways:
Method 1 (evaporation): Addition of 100 μl stock solution of said peptide at a concentration of 4-6 mg/ml to each well of a 96-well half area plate (150 μl well size). Subsequently the solvent was evaporated by applying a vacuum until the solvent was completely removed.
Method 2 (precipitation): Addition of a certain volume of a stock solution of said peptide containing to each well of a 96-well half area plate followed by the addition of a certain volume of concentrated phosphoric acid to obtain a pH of 4.6 followed by addition of a certain volume of ethanol resulting in a final ethanol concentration of 20% v/v. Subsequently the plate was stored at 4° C. for 1 h and then centrifuged at 4,000 rpm for 20 min. Finally the supernatant was removed. The concentration of the stock solution was chosen in a way that the final amount of peptide after supernatant removal was >0.4 mg per well.
In both cases the stock solution was prepared by adding de-ionized water to a certain amount of powder of said peptide followed by a stepwise addition of small amounts of a concentrated sodium hydroxide solution until said peptide was completely in solution.
To determine solubility of a target peptide at different pH and organic solvent concentrations, two different buffer systems were used in independent experiments to cover the whole range from pH 3.0 to pH 11.0. Buffer system 1 covers pH 3.0-7.5 and buffer system 2 covers pH 7.5-11.0. For each buffer system 96 different solvent compositions were premixed in the following way: • 1. A low pH buffer (adjusted to either pH 3.0 or pH 7.5) and a high pH buffer (adjusted to either pH 7.5 or pH 11.0) were mixed at 8 different ratios to obtain values between pH 3.0 and pH 7.5 or pH 7.5 and pH 11.0, respectively. The total volume after mixing was 300 μl. • 2. 12 different amounts of organic solvent were then added to these buffers to obtain organic solvent (e.g. ethanol) concentrations between 0 and 70% w/w. • 3. Water was then added to obtain a total weight of 1.0 g of solvent in each well.
After preparing the 96 different solvent systems, 100 μl of each system was transferred to the 96-well plate containing the solid form of the target peptide (prepared as described in the section “96-well plate preparation”). The plate was then stored at a given temperature (between 5° C. and 70° C.) for a given time on a rotating shaker set to 400 rpm. At regular time intervals the plate was centrifuged (4,000 rpm for 10 min) and a 10 μl sample was taken from each well. The samples were then analysed by UV absorption at 280 nm for peptide quantification. Peptide concentration results are given as UV absorption at 280 nm of the sample subtracted UV absorption at 280 nm of a well comprising 10 μl water.
The buffers used were as follows: • Buffer system 1 (for the pH range from pH 3.0-7.5)
• Buffer system 2 (for the pH ranae from pH 7.5-11.0)
Solubility of liraglutide was determined using Assay (I) described herein. Liraglutide was prepared using Method 1 (evaporation) or Method 2 (precipitation) as described in subsection “96-well plate preparation”.

[1] = DMF 63.6% w/w, pH 10.5, RT, Method 1 (evaporation)
[2] = DMF 63.6% w/w, pH 11.0, RT, Method 1 (evaporation)
[3] = DMF 70.0% w/w, pH 3.1, RT, Method 1 (evaporation)
[4] = DMF 70.0% w/w, pH 4.8, RT, Method 1 (evaporation)
[5] = DMF 70.0% w/w, pH 5.8, RT, Method 1 (evaporation)
[6] = DMF 70.0% w/w, pH 6.3, RT, Method 1 (evaporation)
[7] = DMF 70.0% w/w, pH 6.7, RT, Method 1 (evaporation)
[8] = DMF 70.0% w/w, pH 6.9, RT, Method 1 (evaporation)
[9] = DMF 70.0% w/w, pH 7.2, RT, Method 1 (evaporation)
[10] = DMF 70.0% w/w, pH 7.5, RT, Method 1 (evaporation)
[11] = DMF 70.0% w/w, pH 8.0, RT, Method 1 (evaporation)
[12] = DMF 70.0% w/w, pH 8.5, RT, Method 1 (evaporation)
[13] = DMF 70.0% w/w, pH 9.0, RT, Method 1 (evaporation)
[14] = DMF 70.0% w/w, pH 9.5, RT, Method 1 (evaporation)
[15] = DMF 70.0% w/w, pH 10.0, RT, Method 1 (evaporation)
[16] = DMF 70.0% w/w, pH 10.5, RT, Method 1 (evaporation)
[17] = DMF 70.0% w/w, pH 11.0, RT, Method 1 (evaporation)
[18] = MeCN 0.0% w/w, pH 3.0, 5° C., Method 1
[19] = MeCN 0.0% w/w, pH 3.0, 70° C., Method 1
[20] = MeCN 0.0% w/w, pH 3.6, 5° C., Method 1
[21] = MeCN 0.0% w/w, pH 3.6, 70° C., Method 1
[22] = MeCN 0.0% w/w, pH 4.3, 70° C., Method 1
[23] = MeCN 0.0% w/w, pH 4.9, 70° C., Method 1
[24] = MeCN 0.0% w/w, pH 4.9, RT, Method 1
[25] = MeCN 0.0% w/w, pH 5.6, 70° C., Method 1
[26] = MeCN 0.0% w/w, pH 5.6, RT, Method 1
[27] = MeCN 0.0% w/w, pH 6.2, 70° C., Method 1
[28] = MeCN 0.0% w/w, pH 6.2, RT, Method 1
[29] = MeCN 0.0% w/w, pH 6.9, 70° C., Method 1
[30] = MeCN 0.0% w/w, pH 6.9, RT, Method 1
[31] = MeCN 0.0% w/w, pH 7.5, 70° C., Method 1
[32] = MeCN 0.0% w/w, pH 7.5, RT, Method 1
[33] = MeCN 0.0% w/w, pH 8.0, 70° C., Method 1
[34] = MeCN 0.0% w/w, pH 8.0, RT, Method 1
[35] = MeCN 0.0% w/w, pH 8.5, 70° C., Method 1
[36] = MeCN 0.0% w/w, pH 8.5, RT, Method 1
[37] = MeCN 0.0% w/w, pH 9.0, 70° C., Method 1
[38] = MeCN 0.0% w/w, pH 9.0, RT, Method 1
[39] = MeCN 0.0% w/w, pH 9.5, 70° C., Method 1
[40] = MeCN 0.0% w/w, pH 9.5, RT, Method 1
[41] = MeCN 0.0% w/w, pH 10.0, 70° C., Method 1
[42] = MeCN 0.0% w/w, pH 10.0, RT, Method 1

CCCCCCCCCCCCCCCC(=O)N[C@@H](CCC(=O)NCCCC[C@H](NC(=O)[C@H](C)NC(=O)[C@H](C)NC(=O)[C@H](CCC(N)=O)NC(=O)CNC(=O)[C@H](CCC(=O)O)NC(=O)[C@H](CC(C)C)NC(=O)[C@H](Cc1ccc(O)cc1)NC(=O)[C@H](CO)NC(=O)[C@H](CO)NC(=O)[C@@H](NC(=O)[C@H](CC(=O)O)NC(=O)[C@H](CO)NC(=O)[C@@H](NC(=O)[C@H](Cc1ccccc1)NC(=O)[C@@H](NC(=O)CNC(=O)[C@H](CCC(=O)O)NC(=O)[C@H](C)NC(=O)[C@@H](N)Cc1cnc[nH]1)[C@@H](C)O)[C@@H](C)O)C(C)C)C(=O)N[C@@H](CCC(=O)O)C(=O)N[C@@H](Cc1ccccc1)C(=O)N[C@H](C(=O)N[C@@H](C)C(=O)N[C@@H](Cc1c[nH]c2ccccc12)C(=O)N[C@@H](CC(C)C)C(=O)N[C@H](C(=O)N[C@@H](CCCNC(=N)N)C(=O)NCC(=O)N[C@@H](CCCNC(=N)N)C(=O)NCC(=O)O)C(C)C)[C@@H](C)CC)C(=O)O [liraglutide, Arg34,Lys26-(N-epsilon-(gamma-L-glutamyl(N-alfa-hexadecanoyl)))-GLP-1(7-37)]
Peptide concentration after 180 min (DMF 63.6% w/w, pH 10.0, RT, Method 1 (evaporation)): >4.0 mg/mL | Peptide concentration after 5 min [1]: 3.5 mg/mL | Peptide concentration after 180 min [1]: >4.0 mg/mL | Peptide concentration after 5 min [2]: 1.3 mg/mL | Peptide concentration after 180 min [2]: >4.0 mg/mL | Peptide concentration after 5 min [3]: 0.3 mg/mL | Peptide concentration after 180 min [3]: 0.3 mg/mL | Peptide concentration after 24 h [3]: 0.4 mg/mL | Peptide concentration after 5 min [4]: 0.2 mg/mL | Peptide concentration after 180 min [4]: 0.2 mg/mL | Peptide concentration after 24 h [4]: 0.3 mg/mL | Peptide concentration after 5 min [5]: 0.2 mg/mL | Peptide concentration after 180 min [5]: 0.3 mg/mL | Peptide concentration after 24 h [5]: 0.4 mg/mL | Peptide concentration after 5 min [6]: 0.2 mg/mL | Peptide concentration after 180 min [6]: 0.3 mg/mL | Peptide concentration after 24 h [6]: 0.3 mg/mL | Peptide concentration after 5 min [7]: 0.5 mg/mL | Peptide concentration after 180 min [7]: 0.3 mg/mL | Peptide concentration after 24 h [7]: 0.3 mg/mL | Peptide concentration after 5 min [8]: 0.5 mg/mL | Peptide concentration after 180 min [8]: 0.4 mg/mL | Peptide concentration after 24 h [8]: 0.4 mg/mL | Peptide concentration after 5 min [9]: 0.3 mg/mL | Peptide concentration after 180 min [9]: 0.4 mg/mL | Peptide concentration after 24 h [9]: 0.4 mg/mL | Peptide concentration after 5 min [10]: 1.5 mg/mL | Peptide concentration after 180 min [10]: >4.0 mg/mL | Peptide concentration after 5 min [11]: 1.2 mg/mL | Peptide concentration after 180 min [11]: >4.0 mg/mL | Peptide concentration after 5 min [12]: 2.9 mg/mL | Peptide concentration after 180 min [12]: >4.0 mg/mL | Peptide concentration after 5 min [13]: 2.6 mg/mL | Peptide concentration after 180 min [13]: >4.0 mg/mL | Peptide concentration after 5 min [14]: 3.2 mg/mL | Peptide concentration after 180 min [14]: >4.0 mg/mL | Peptide concentration after 5 min [15]: 3.4 mg/mL | Peptide concentration after 180 min [15]: >4.0 mg/mL | Peptide concentration after 5 min [16]: 3.5 mg/mL | Peptide concentration after 180 min [16]: >4.0 mg/mL | Peptide concentration after 5 min [17]: 1.1 mg/mL | Peptide concentration after 180 min [17]: >4.0 mg/mL | Peptide concentration after 5 min [18]: 0.1 mg/mL | Peptide concentration after 180 min [18]: 0.1 mg/mL | Peptide concentration after 24 h [18]: 0.2 mg/mL | Peptide concentration after 5 min [19]: 1.0 mg/mL | Peptide concentration after 180 min [19]: 1.5 mg/mL | Peptide concentration after 5 min [20]: 0.0 mg/mL | Peptide concentration after 180 min [20]: 0.1 mg/mL | Peptide concentration after 24 h [20]: 0.1 mg/mL | Peptide concentration after 5 min [21]: 0.0 mg/mL | Peptide concentration after 180 min [21]: 0.2 mg/mL | Peptide concentration after 5 min [22]: 0.1 mg/mL | Peptide concentration after 180 min [22]: 0.1 mg/mL | Peptide concentration after 5 min [23]: 0.9 mg/mL | Peptide concentration after 180 min [23]: 0.0 mg/mL | Peptide concentration after 5 min [24]: 0.3 mg/mL | Peptide concentration after 180 min [24]: 0.1 mg/mL | Peptide concentration after 5 min [25]: 0.3 mg/mL | Peptide concentration after 180 min [25]: 1.7 mg/mL | Peptide concentration after 5 min [26]: 0.2 mg/mL | Peptide concentration after 180 min [26]: 0.1 mg/mL | Peptide concentration after 5 min [27]: 0.8 mg/mL | Peptide concentration after 180 min [27]: >4.0 mg/mL | Peptide concentration after 5 min [28]: 0.1 mg/mL | Peptide concentration after 180 min [28]: 0.4 mg/mL | Peptide concentration after 5 min [29]: 2.0 mg/mL | Peptide concentration after 180 min [29]: >4.0 mg/mL | Peptide concentration after 5 min [30]: 0.6 mg/mL | Peptide concentration after 180 min [30]: 3.1 mg/mL | Peptide concentration after 5 min [31]: 1.8 mg/mL | Peptide concentration after 180 min [31]: >4.0 mg/mL | Peptide concentration after 5 min [32]: 0.8 mg/mL | Peptide concentration after 180 min [32]: 3.0 mg/mL | Peptide concentration after 5 min [33]: 2.2 mg/mL | Peptide concentration after 180 min [33]: >4.0 mg/mL | Peptide concentration after 5 min [34]: 0.6 mg/mL | Peptide concentration after 180 min [34]: 2.5 mg/mL | Peptide concentration after 24 h [34]: >4.0 mg/mL | Peptide concentration after 5 min [35]: 1.9 mg/mL | Peptide concentration after 180 min [35]: >4.0 mg/mL | Peptide concentration after 5 min [36]: 0.6 mg/mL | Peptide concentration after 180 min [36]: 3.5 mg/mL | Peptide concentration after 24 h [36]: >4.0 mg/mL | Peptide concentration after 5 min [37]: 2.1 mg/mL | Peptide concentration after 180 min [37]: >4.0 mg/mL | Peptide concentration after 5 min [38]: 0.7 mg/mL | Peptide concentration after 180 min [38]: 2.9 mg/mL | Peptide concentration after 24 h [38]: >4.0 mg/mL | Peptide concentration after 5 min [39]: 2.3 mg/mL | Peptide concentration after 180 min [39]: >4.0 mg/mL | Peptide concentration after 5 min [40]: 0.8 mg/mL | Peptide concentration after 180 min [40]: 2.8 mg/mL | Peptide concentration after 24 h [40]: >4.0 mg/mL | Peptide concentration after 5 min [41]: 2.2 mg/mL | Peptide concentration after 180 min [41]: >4.0 mg/mL | Peptide concentration after 5 min [42]: 0.9 mg/mL | Peptide concentration after 180 min [42]: 3.4 mg/mL | Peptide concentration after 24 h [42]: >4.0 mg/mL
